The source of these data is PubChem BioAssay AID2685 (National Center for Advancing Translational Sciences (NCATS), 2010).

Molecules are shown by their SMILES. This is one part of the list. Shown are side measurements of this screen, not its main read-out; they come without a call. Most of these compounds were active or inconclusive in the main read-out, so they are no random draw. The note in brackets gives the kind of curve behind each potency; many fits are weak.

The nature of the test: qHTS Assay for Lipid Storage Modulators in Drosophila S3 Cells.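 On cell number change: cells counted by Cell Tracker Red CMTPX staining in the red channel.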 As to conditions: BODIPY lipid droplet fluorescence, 18-24 h; for cell number change: measured here: cell count max response, cells fed with added oleic acid. The essentials: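 Drosophila S3 cells loaded with oleic acid (400 uM, as added) and compounds at several concentrations; lipid droplets imaged by 488-nm laser-scanning cytometry, 500–530 nm intensity and object ratio to cell channel. Percent activity normalized to 20 uM Triacsin C.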
On the technique in general: qHTS replaces the single test concentration by a dilution series.

[1] abbreviates: measured here: lipid fluorescence (Fed channel) AC50, cells fed with added oleic acid.
Setting [2] is: measured here: cell number channel AC50, cells fed with added oleic acid.

Usually AC50 stands for the midpoint of the concentration-response curve, whichever way the signal moves. Read a high AC50 as weaker potency.

Consider `CCOc1ccc(NC(=O)CCCN2C(=S)NC(C)(C)CC2C)cc1` (stereo unspecified), for which the cell number change worked out at 8.61%. Moreover, the AC50 under setting [1] is 4.11 µM [rising, full curve, poor fit].

Consider `Cn1c(SCc2cccc(F)c2)nnc1-c1cnccn1`, for which the cell number change was determined as 47.3%. Under setting [2], the concentration at half-maximal activity (AC50) was 7.31 µM [rising, partial curve, poor fit]. Also, the half-maximal activity concentration (AC50) under setting [1] is 6.51 µM [falling, single point].

For the compound `Cc1ccc(S(=O)(=O)N2CCN(CCNC(=O)C(=O)NCc3ccccc3)CC2)cc1`, the cell number change is -1.32%. Besides, the concentration at half-maximal activity (AC50) under setting [1] is 2.51 µM [rising, partial curve].

Turning to `O=C(CN1CCCCCC1)Nc1cc(C(F)(F)F)ccc1Cl`, the cell number change amounted to 50.1%. The AC50 under setting [2] is 0.058 µM [rising, full curve, poor fit]. The AC50 under setting [1] is 2.31 µM [rising, partial curve, poor fit].

Turning to `CN(CCCC1CCCC1)C(=O)CC1C(=O)NCCN1Cc1cccc(F)c1F` (stereo unspecified), the cell number change is -10.6%. Also, under setting [1], the AC50 is 0.461 µM [falling, full curve, poor fit].

As to `Cc1c(NC(=O)C(C)OC(=O)CC2Sc3ccccc3NC2=O)c(=O)n(-c2ccccc2)n1C` (stereo unspecified), the cell number change amounted to 35.7%. Further, the AC50 under setting [2] was 29.1 µM [rising, single point].

Regarding `O=C(NC(=S)N1CCN(Cc2ccccc2)CC1)c1ccco1`, the AC50 under setting [2] is 0.103 µM [rising, single point].

Take `Cc1cccc(C(=O)NCC(C)NC(=O)c2cccc(C)c2)c1` (stereo unspecified): the cell number change was found to be 4.38%. In addition, the AC50 under setting [1] was 23.1 µM [rising, single point].

Consider `CC1CC(C)CN(C(=O)CN(C)S(=O)(=O)c2ccc3c(c2)c(=O)n(C)c(=O)n3C)C1` (stereo unspecified), for which the cell number change is -23.3%. In addition, the concentration at half-maximal activity (AC50) under setting [2] is 2.31 µM [falling, partial curve].

`CN(Cc1cccc(F)c1)C(=O)c1ccc2c(=O)n3c(nc2c1)CCC3`: the cell number change was -52.7%. Besides, under setting [2], the AC50 was 1.3 µM [falling, full curve]. Moreover, the AC50 under setting [1] was 0.184 µM [falling, full curve].

Take `CC1=Nc2cc(C(=O)NCCN3CCOCC3)ccc2Sc2c(C)ccc(C)c21`: the cell number change worked out at 20.2%. The AC50 under setting [1] was 2.31 µM [rising, partial curve].

Take `Cc1cc(=O)[nH]c(N/N=C/C=C/c2ccccc2)n1`: the cell number change worked out at 8.28%. Also, the AC50 under setting [2] is 2.06 µM [falling, single point]. The AC50 under setting [1] is 3.66 µM [falling, single point].

In the case of `Cc1ccsc1/C=N/N=C/c1sccc1C`, the AC50 under setting [1] is 20.6 µM [falling, partial curve].

In the case of `CCCC/C(O)=C1\C(=O)CCCC1=NCCc1c(C)[nH]c2ccc(OC)cc12`, the AC50 by setting is: under setting [2], 0.517 µM [rising, full curve]; under setting [1], 0.651 µM [rising, partial curve, poor fit].

Turning to `COc1ccc(Cl)cc1Nc1cc(C)nc2nc(C)nn12`, the cell number change worked out at 9.38%. Besides, the AC50 under setting [1] is 13 µM [rising, partial curve].

As for `CCN1CCN(C(=O)/C=C/c2cccc(Cl)c2)CC1`, the cell number change worked out at 23.7%. The AC50 under setting [1] is 0.00461 µM [rising, full curve, poor fit].

As to `COc1ccccc1NC(=O)/C(=C/c1cccc([N+](=O)[O-])c1)c1ccccc1`, the cell number change is -4.07%.

Turning to `O=C(OCC(=O)N1CCN(C(=O)c2ccco2)CC1)c1ccccc1NCCO`, the cell number change was -9.67%. Also, under setting [1], the AC50 was 25.9 µM [rising, single point].

For `O=C(O)CCn1cc(/C=C2\NC(=S)N(c3ccccc3)C2=O)c(-c2ccc(Br)cc2)n1`, the cell number change worked out at 19.9%.

On to `O=C(C1COc2ccccc2O1)N1CCCC1` (stereo unspecified), for which the half-maximal activity concentration (AC50) under setting [1] is 1.64 µM [falling, partial curve].

In the case of `O=C(NCCCN1CCOCC1)C(=O)N/N=C/c1ccccc1`, the cell number change is -31.3%. Besides, under setting [2], the AC50 was 3.26 µM [falling, partial curve].

On to `O=C(Nc1nc2c(s1)CN(Cc1ccccc1)CC2)c1c(F)cccc1F`, for which the cell number change came to 10.3%. Also, the AC50 under setting [1] is 10.3 µM [falling, single point].

`CCN1C(=O)[C@H]2[C@@H](c3ccc(-c4ccc(F)cc4)cc3)N[C@@](CC(C)C)(C(=O)OC)[C@H]2C1=O`: the cell number change was -26.9%. Also, the AC50 under setting [1] is 16.4 µM [falling, partial curve, poor fit].

As to `COC(=O)CN(c1ccccc1OC)S(=O)(=O)c1ccccc1`, the cell number change was -152%. For the same compound, the AC50 under setting [2] was 23.1 µM [falling, partial curve].

With `CC1(C)C2CCC1(CS(=O)(=O)N1CCN(c3ccccc3F)CC1)C(=O)C2` (stereo unspecified), the cell number change was -3.28%. Moreover, the half-maximal activity concentration (AC50) under setting [2] is 4.61 µM [rising, single point]. Moreover, under setting [1], the AC50 is 6.51 µM [rising, single point].

On to `Cc1ccnc(NC(=O)CCNC(=O)c2ccc(Cl)cc2)c1`, for which the cell number change was 4.86%. The AC50 under setting [1] was 18.4 µM [falling, single point].

Turning to `COc1cccc(CNC(=O)c2nnn(-c3ccc(OC(F)(F)F)cc3)c2N)c1`, the concentration at half-maximal activity (AC50) under setting [2] was 6.51 µM [rising, single point] and the AC50 under setting [1] was 20.6 µM [rising, partial curve].

Regarding `CCOC(=O)N1CCN(C2CCCN(C(=O)c3ccccc3SC)C2)CC1` (stereo unspecified), the cell number change is -72.4%. Under setting [2], the AC50 is 9.2 µM [falling, partial curve]. Moreover, the AC50 under setting [1] was 5.8 µM [falling, full curve].

With `COc1ccc([C@@H]2[C@@H]3C(=O)N(C(C)(C)C)C(=O)[C@@H]3[C@]3(Cc4ccccc4)C(=O)N(c4ccc(C(F)(F)F)cc4)C(=O)N23)cc1`, the cell number change is -2.91%.

As to `CC1Sc2ccc(S(=O)(=O)N3CCC(C(=O)N(C)Cc4ccccc4)CC3)cc2NC1=O` (stereo unspecified), the cell number change came out at 3.77%. For the same compound, under setting [1], the AC50 is 23.1 µM [falling, single point].

With `COC(=O)c1c(NC(=S)NN2CCN(C)CC2)sc2c1CCC(C)C2` (stereo unspecified), the cell number change is -55.2%. Also, the concentration at half-maximal activity (AC50) under setting [2] is 20.6 µM [falling, single point]. Besides, the concentration at half-maximal activity (AC50) under setting [1] was 18.4 µM [falling, single point].

For the compound `CCCOC(=O)CSc1nnc(-c2ccccc2Cl)o1`, the cell number change was found to be 32.3%. Further, the AC50 under setting [2] is 3.26 µM [rising, full curve]. Also, under setting [1], the half-maximal activity concentration (AC50) is 1.64 µM [falling, partial curve].

For the compound `O=C(NCCc1ccccc1)c1ccc2c(c1)N(Cc1ccccc1)C(=O)CS2=O` (stereo unspecified), the AC50 was 4.11 µM [rising, single point] under setting [2] and 6.51 µM [rising, single point] under setting [1].

With `O=C(CN1CCN(S(=O)(=O)c2cccc(Cl)c2)CC1)N1CCCCC1`, the cell number change is -16%.

In the case of `CCOC(=O)/C(C#N)=C/Nc1cc(OC)ccc1OC`, the cell number change is 32.1%. In addition, under setting [2], the AC50 is 2.59 µM [rising, partial curve].
